Patent publication US20220010018A1 (ALBERT EINSTEIN COLLEGE OF MEDICINE, published 2022)
Results are given in words; binding and its absence hold for the method and conditions named. Some results given as binding are weak or reduced against the parent protein; the word gives no strength. Values belong to the binder of their own block, whether it stands above or below them.

How the values were obtained:
[1] = biological target: T1, endogenous B7-H3 expressed by human cells (human) (UniProt Q5ZPR3); assay: FACS on PC3 and MDA-MB231 cells
T1 sequence: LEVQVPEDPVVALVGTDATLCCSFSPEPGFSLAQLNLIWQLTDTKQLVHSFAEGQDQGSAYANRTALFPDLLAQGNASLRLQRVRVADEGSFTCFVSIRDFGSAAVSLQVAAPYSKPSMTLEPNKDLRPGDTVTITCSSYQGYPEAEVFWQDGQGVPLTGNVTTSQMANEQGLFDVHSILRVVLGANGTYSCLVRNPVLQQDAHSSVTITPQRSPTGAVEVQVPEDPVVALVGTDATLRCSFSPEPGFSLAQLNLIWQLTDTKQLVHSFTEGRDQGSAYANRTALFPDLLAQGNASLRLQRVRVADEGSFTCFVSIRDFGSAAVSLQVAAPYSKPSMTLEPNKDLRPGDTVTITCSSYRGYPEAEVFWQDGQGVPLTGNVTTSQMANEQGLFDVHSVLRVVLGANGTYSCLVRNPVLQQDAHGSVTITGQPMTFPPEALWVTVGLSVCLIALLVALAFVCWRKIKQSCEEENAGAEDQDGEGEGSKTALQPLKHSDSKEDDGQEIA

[2] = biological target: T1, endogenous B7-H3 expressed by human cells (human); assay: flow cytometry (FACS) on PC3 and MDA-MB231 cells with endogenous B7-H3; single staining, antibody concentration not given

binding [1]: binds | binding [2]: binds
B1: monoclonal antibody 8B12 (antibody, IgG3, V domains shown)
VH: QVQLQQPGAELVKPGASVKMSCKASGYTFTSYWITWVKQRPGQGLEWIGDIYPGSGSTNYNEKFKSKATLTVDTSSSTAYMQLSSLTSEDSAVYYCARGGTRFSPFAYWGQGTLVTVSA
VL: DVLMTQTPLSLPVSLGDQASISCRSSQSIVHSNGNTYLEWYLQKPGQSPKLLIYKVSNRFSGVPDRFSGSGSGTDFTLKISRVEAEDLGVYYCFQGSHVPWTFGGGTKLEIKR
notes: Residue limits come from CLM-00006; also called mAb 8B12

binding [1]: binds | binding [2]: binds
B2: monoclonal antibody 12B4 (antibody, IgG2b, V domains shown)
VH: QVQLQQPGAELVKPGASVKLSCKASGYTFTSYWMHWVKQRPGQGLEWIGMIHPNSGSTNYNEKFKSKATLTVDKSSSTAYMQLSSLTSEDSAVYYCARYYYGSSYAMDYWGQGTSVTVS
VL: QIVLTQSPAIMSASPGEKVTITCSASSSVSYMHWFQQKPGTSPKLWIYSTSNLASGVPARFSGSGSGTSYSLTISRMEAEDAATYYCQQRSSYPYTFGGGTKLEIKR
notes: Residue limits come from CLM-00006; also called mAb 12B4
